Results are given in words; binding and its absence hold for the method and conditions named. Some binding calls cover weakened binding; strength is not graded here. For some of these results: Where a sequence is shown, tags or fusion partners need not be part of it.
Legend:
[1] = biological target: Recombinant cynomolgus monkey LSR-Fc (cynomolgus monkey); test: ELISA, LSR-Fc coated on plate
[2] = biological target: T1, Recombinant human LSR-Fc (human) (UniProt Q86X29); test: ELISA, LSR-Fc coated on plate
T1 sequence: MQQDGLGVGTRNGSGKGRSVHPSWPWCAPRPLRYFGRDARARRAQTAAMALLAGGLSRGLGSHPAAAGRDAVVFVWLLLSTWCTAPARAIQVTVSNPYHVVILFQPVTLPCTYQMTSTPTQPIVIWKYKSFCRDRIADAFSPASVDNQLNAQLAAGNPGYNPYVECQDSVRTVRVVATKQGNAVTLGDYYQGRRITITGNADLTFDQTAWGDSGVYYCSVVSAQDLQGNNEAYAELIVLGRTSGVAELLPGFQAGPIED

[3] = biological target: T2, Recombinant rat LSR-Fc (rat) (UniProt Q9WU74); test: ELISA, LSR-Fc coated on plate
T2 sequence (looked up): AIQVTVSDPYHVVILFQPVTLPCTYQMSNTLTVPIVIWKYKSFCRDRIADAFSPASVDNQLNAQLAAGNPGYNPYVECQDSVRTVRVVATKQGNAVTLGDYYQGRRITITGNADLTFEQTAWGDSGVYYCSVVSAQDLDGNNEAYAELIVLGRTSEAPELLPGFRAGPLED

[4] = biological target: T3, Mouse LSR on 4T1 and MC-38-mLSR-13 cells (mouse) (UniProt Q99KG5); test: flow cytometry on mouse tumour cell lines, #27-6mF18 as primary antibody
T3 sequence (looked up): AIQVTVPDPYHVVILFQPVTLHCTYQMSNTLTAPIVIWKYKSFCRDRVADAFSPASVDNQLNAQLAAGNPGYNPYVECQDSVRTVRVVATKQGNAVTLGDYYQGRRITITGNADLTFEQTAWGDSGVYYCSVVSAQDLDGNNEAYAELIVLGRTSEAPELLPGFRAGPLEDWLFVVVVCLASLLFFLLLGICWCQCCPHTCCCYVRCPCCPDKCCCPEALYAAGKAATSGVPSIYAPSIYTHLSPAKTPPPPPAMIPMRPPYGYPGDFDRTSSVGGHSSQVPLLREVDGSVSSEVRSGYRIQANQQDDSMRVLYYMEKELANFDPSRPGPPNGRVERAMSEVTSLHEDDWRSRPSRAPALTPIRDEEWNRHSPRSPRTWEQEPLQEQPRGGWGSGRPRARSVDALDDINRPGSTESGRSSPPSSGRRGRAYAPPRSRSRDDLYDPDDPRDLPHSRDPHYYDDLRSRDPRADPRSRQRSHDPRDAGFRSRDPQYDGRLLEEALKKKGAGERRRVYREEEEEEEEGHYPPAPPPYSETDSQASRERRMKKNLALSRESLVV

binding [1]: binds
binding [2]: binds
binding [3]: binds
binding [4]: binds
B1: Chicken mouse chimeric anti-LSR antibody (#27-6mF18) (antibody, V domains shown)
VH: AVTLDESGGGLQMPGGALSLVCRASGFDFSSYEMQWIRQAPGKGLEWVAGISGAGSGTRYGSAVKGRATISRDNGQSTVRLQLNNLRAEDTGIYFCARSSNIDAWGHGTEVTVST
VL: ALTQPASVSANLGGTVKITCSGGGRYAESYYYGWYQQKSPGSTPVTVIYWNDKRPSNIPSRFSGSLSGSTNTLTITGVQVEDEAVYFCGSYEDSRSAFGAGTTLTV
notes: Chicken-mouse chimeric antibody; also called anti-LSR monoclonal antibody #27-6 mF-18
